Reference: PubChem BioAssay AID687031 (Broad Institute, 2013)
In all, about 1,400 compounds went through this assay and about 50 (4%) were called active.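 How the source made its calls: active means fitted curve reaches 30% CPE protection at or below the top valid dose, with every test run called active; inconclusive means test runs disagree, some active and some not; inactive means every test run inactive, including effects in the wrong direction.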 Some of the results follow. Potency and affinity values are given separately.

Experiment: Dengue virus 2 cytopathic effect protection, dose response, BHK-21 cells, ATP luminescence, cherry-pick (AID 687031);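 further: 0% = infected DMSO wells and 100% = uninfected cell wells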
Conditions: BHK-21 DENV2 CPE protection, 5 d; at 19.5 µM (top of the series) unless noted

CPE protection (higher = active), inactive:
COc1ccccc1NC(=O)CN1CCOCC1 14.9%
CO[C@@H]1CN(C)C(=O)c2ccc(NC(C)=O)cc2OC[C@@H](C)N(S(C)(=O)=O)C[C@H]1C -3.94%
O=C(NCCN1CCCC1)[C@H]1N[C@H]2c3ccc(-c4ccccc4)c(=O)n3C[C@H]2[C@@H]1CO 4.15%
CCCN1Cc2cccc(C(=O)Nc3ccc4c(c3)OCCO4)c2C1=O -8.78%
COc1ccccc1N1CCN(C(=O)c2cc(S(=O)(=O)N3CCCCC3)ccc2C)CC1 -12.5%
CCOc1ccc(NC(=O)CN(C)C(=O)c2ccccc2OCc2c(C)noc2C)cc1OCC 17.7%
CCOC(=O)[C@]12CCCC=C1N(Cc1ccccc1)C(=O)[C@H](CC(=O)NCc1cccs1)C2 -0.078% [at 10 µM]
Oc1ccc(Cl)cc1CNCc1ccc(F)cc1 31.5%
COc1ccc2c3c([nH]c2c1)[C@@H](CO)N(C(=O)C1CCOCC1)CC31CN(C)C1 16.4%
COc1ccc(OC)c(NC(=O)NNS(=O)(=O)c2ccc(C)cc2C)c1 -12.8%
C[C@H]1CCCCO[C@H](CN(C)C(=O)Nc2ccc(C(F)(F)F)cc2)[C@@H](C)CN([C@@H](C)CO)C(=O)c2cc(NC(=O)C3CCCCC3)ccc2O1 -24.3%
CC(=O)NC(c1cccc(F)c1)c1nc(-c2ccc(N(C)C)cc2)cs1 (centres undefined) 9.42%
Cc1c(C)c2cc(Cl)c(OCC(=O)NCCCN3CCCC3=O)cc2oc1=O 30.8%
CC(C)Cc1ccc(C(C)C(N)=NCCc2ccccc2)cc1 (centres undefined) 21.7%
COc1ccc(N(C(=O)c2cccnc2)S(=O)(=O)c2ccc(OC)c(OC)c2)cc1 -13.9%
CC(C)C(NS(=O)(=O)c1ccc2c(c1)C(C)(C)C(=O)N2C)C(=O)NCc1ccccc1Cl (centres undefined) -10.8%
COc1ccc(OC)c(S(=O)(=O)N2CCN(c3c(C)cccc3C)CC2)c1 -28.2%
CCCCNC(=O)C[C@@H]1C[C@@]2(C(=O)OC)CCCCC=C2N(CCC2=CCCCC2)C1=O -16.8%
C=CCC(NC(=O)c1ccc(C#N)cc1)C(=O)NCCC (centres undefined) -14%
C[C@]1(C(=O)NCCc2c[nH]c3ccccc23)C=C[C@@H](Cc2ccccc2)N1C(=O)c1ccccc1 -14.9%
CCC(c1nnnn1-c1c(C)cccc1C)N1CCN(C/C=C/c2ccccc2)CC1 (centres undefined) -27%
COc1ccc(C(=O)N2CCNC(=O)C2CC(=O)Nc2cccc(Cl)c2Cl)cc1 (centres undefined) 7.23%
CN(C)CC(=O)Nc1ccc2c(c1)[C@H]1C[C@H](CC(=O)NC3CCCCC3)O[C@@H](CO)[C@H]1O2 0.976%
COc1cccc(S(=O)(=O)Nc2ccc3c(c2)C(=O)N(C)C[C@H](OC)[C@H](C)CN[C@@H](C)CO3)c1 20.5%
CC#CCN1C(=O)N[C@@H](c2ccccc2)C(C(=O)OC)=C1C -2.29%
Cc1ccc(NCC(=O)N/N=C/c2cccc(Br)c2)cc1 7.97%
Cc1ccc(NC(=O)C2(c3cccs3)CCOCC2)cc1C 16.6%
O=C(NC1CCCC1)c1nc(-c2c(F)cccc2F)oc1-c1ccccc1 -27.9%
CCc1nnc(N2C(=O)c3ccccc3C2(O)c2ccccc2)s1 (centres undefined) 12.7%
O=C(NC1CCCCC1)[C@@H]1[C@@H](CO)[C@@H]2Cn3c(cccc3=O)[C@H]1N2Cc1cccnc1 7.21%
COc1ccc(C(=O)N2CCC2(C)C(=O)O)cc1F (centres undefined) 3.96%
c1ccc(COCCCn2cc(-c3ccccc3)nn2)cc1 -2.66%
CN(C)S(=O)(=O)c1cccc(C(=O)Nc2ccccc2C(=O)NC2CC2)c1 20.9%
Cc1ccccc1OCC(=O)OCC(=O)NCCNC(=O)COC(=O)COc1ccccc1C 7.36%
COc1ccccc1N1CCN(S(=O)(=O)CCNC(=O)CCc2ccccc2)CC1 5.74%
CCN(C)C1CN(Cc2cn(Cc3ccccc3)nn2)S(=O)(=O)C1 (centres undefined) 4.79%
CCOC(=O)N1CCC(NCCNC(=O)c2ccc(F)c(F)c2)CC1 -26.1%
CCCN=C1N(CC)C[C@@H]2[C@@H]3C(=O)N(C)C(=O)[C@@H]3[C@](CC)(C(=O)OC)N12 -8.72%
C[C@H](CO)N1C[C@H](C)[C@H](CN(C)C(=O)Nc2cccc3ccccc23)OCCCC[C@H](C)Oc2ccc(NS(=O)(=O)c3cn(C)cn3)cc2C1=O 27.9%
COC(=O)c1ccc2nc(C3CCCCC3)c(Cc3ccccc3OC)n2c1 -7.16%
COc1cc(-c2cnc3c(NC(C)=O)cc(-c4ccccc4CN(C)C)cn23)cc(OC)c1OC -14.2%
CCn1c2ccccc2c2cc(NC(=O)COC(=O)c3cc(OC)c(OC)cc3OC)ccc21 7.07%
O=C(NCCCN1CCOCC1)C1CCC(=O)N1CCc1ccccc1 (centres undefined) 2.19%
CN(C)CCCNC(=O)OC1CC2CC1[C@H]1CCCCN1C2=O (some centres undefined) -6.8%
O=C(O)c1ccccc1C(=O)NCc1c(Cl)cccc1Sc1ccc(Cl)cc1 -0.361%
O=C(O)c1cc(=O)c2c(OCC(O)COc3cccc4oc(C(=O)O)cc(=O)c34)cccc2o1 2.33%
NCc1csc(NC(=O)Nc2cccc(Cl)c2)n1 4.73%
CCCN1CCC(=O)N([C@H](CSc2ccccc2)Cc2ccccc2)CC1 2.27%
CC(Oc1ccc2ccc(=O)oc2c1)C(=O)NC(Cc1c[nH]c2ccc(O)cc12)C(=O)O (centres undefined) 1.32%
COc1ccc2ccccc2c1/C=N/NC(=O)c1ccccc1F 3.87%
COc1cc(CCCN2CCNC[C@@H]2c2ccccc2)cc(OC)c1OC 12.2%
COc1ccccc1CNC(=O)CCCN1C(=O)NC2(CCCC2)C1=O 15.5%
Cc1sc2ncnc(N3CCC(C(=O)Nc4ccc(Cl)cc4Cl)CC3)c2c1C -2.81%
Cc1cc(OCC(=O)NC(Cc2c[nH]c3ccc(O)cc23)C(=O)O)c2c(C)c(C)c(=O)oc2c1 (centres undefined) 9.36%
O=S(=O)(c1ccc(=S)[nH]c1)N1CCN(Cc2ccccc2)CC1 17.7%
Cc1noc(C)c1S(=O)(=O)N(C)C[C@H]1OCCCC[C@@H](C)Oc2ccc(NC(=O)Nc3ccc4c(c3)OCO4)cc2C(=O)N([C@@H](C)CO)C[C@H]1C 25.4%
Cc1ccc(NS(=O)(=O)c2ccc(C(=O)NCCCN3CCCC3=O)cc2)cc1 0.056%
CC(=O)N1CC2(C1)[C@H](c1ccc(-c3ccc(C#N)cc3)cc1)[C@@H](CO)N2C(=O)C1CC1 20.5% [at 21 µM]
C[C@@]12C(=O)N(CCc3c[nH]c4ccccc34)CC(=O)N1[C@H]1c3ccccc3OC[C@@H]1[C@@H]2c1ccccc1 -6.92%
Cc1ccc(S(=O)(=O)N(C)C[C@@H]2OCCCC[C@H](C)Oc3ccc(NS(=O)(=O)c4c(C)noc4C)cc3C(=O)N([C@H](C)CO)C[C@@H]2C)cc1 -10.2%
COc1ccccc1NC(=O)N1CCN(c2ccccn2)CC1 -9.27%
CN1c2ccc(-c3cccc(F)c3)cc2[C@H]2[C@H](CCN2C(=O)Cc2cccnc2)[C@H]1CO -9.94%
CN(C)c1ccc(CNS(=O)(=O)c2ccc3c(c2)C(C)(C)C(=O)N3C)cc1 -18.5%
CCCS(=O)(=O)N1CCCC(C(=O)NCCc2cccc(C)c2)C1 (centres undefined) 16.4%
CC(=O)N1CC2(C1)[C@H](c1ccc(-c3ccc(F)cc3)cc1)[C@H](CO)N2C(C)=O 14%
Cc1ccc(-c2cc(=O)c3ccc(F)cc3[nH]2)cc1 12.4%
C=CCC1NS(=O)(=O)OC(COC)C1C (centres undefined) -12.4%
CCCNC(=O)NC[C@@H]1[C@@H](c2ccc(C3=CCCC3)cc2)[C@@H](CO)N1C(=O)CC -11.2% [at 10 µM]
CC1CCCN(CCCOc2ccc(Br)cc2Cl)C1 (centres undefined) -14.9%
C[C@@H]1CN([C@H](C)CO)C(=O)c2cc(NC(=O)c3ccccc3)ccc2O[C@@H](C)CCCCO[C@@H]1CN(C)S(=O)(=O)c1ccc(F)cc1 14.4%
CCOc1ccc(/C=N/NC(=O)c2ccccc2O)cc1CN1CC2CC(C1)c1cccc(=O)n1C2 (centres undefined) -7.87%
CCOC(=O)C1CCN(Cc2c(C(=O)N3CCOCC3)nc3c(C)cccn23)CC1 4.53%
CC(=O)Nc1cccc(OCCCNC(=O)c2ccc(C(C)(C)C)cc2)c1 -24%
O=C(C[C@@H]1CC[C@H]2[C@@H](COC[C@H](O)CN2C(=O)c2ccccc2F)O1)NCc1ccccc1 -6.08%
C[C@@H]1CCCCO[C@@H](CN(C)S(C)(=O)=O)[C@H](C)CN([C@@H](C)CO)C(=O)c2cc(NS(=O)(=O)c3ccc(Cl)cc3)ccc2O1 -4.56%
Fc1ccc(CNC2CCN(Cc3ccccc3)CC2)cc1 -0.778%
Cc1cccc(OC(C)C(=O)Nc2nc(-c3ccncc3)cs2)c1 (centres undefined) 1.01%
Cc1oc2c(C)c3oc(=O)c(CCC(=O)NCCN4CCOCC4)c(C)c3cc2c1C -8.16%
O=S1(=O)N[C@@H](Cc2ccccc2)COc2cc(N3CCOCC3)ccc21 -17.1%

Reprinted at random: 5 records from the list
CPE protection (higher = active), inactive:
Cc1ccc(NC(=O)C2(c3cccs3)CCOCC2)cc1C 16.6%
O=C(NCCCN1CCOCC1)C1CCC(=O)N1CCc1ccccc1 (centres undefined) 2.19%
COc1cc(-c2cnc3c(NC(C)=O)cc(-c4ccccc4CN(C)C)cn23)cc(OC)c1OC -14.2%
O=C(C[C@@H]1CC[C@H]2[C@@H](COC[C@H](O)CN2C(=O)c2ccccc2F)O1)NCc1ccccc1 -6.08%
COc1ccccc1N1CCN(S(=O)(=O)CCNC(=O)CCc2ccccc2)CC1 5.74%
